Assay results taken from paper PMC12089402.
Results are given in words; binding and its absence hold for the method and conditions named. In cells and extracts the contact can be indirect. Some binding calls cover weakened binding; strength is not graded here.

Amino acid sequences for entries named in this document (tags omitted).
UniProt Q13761: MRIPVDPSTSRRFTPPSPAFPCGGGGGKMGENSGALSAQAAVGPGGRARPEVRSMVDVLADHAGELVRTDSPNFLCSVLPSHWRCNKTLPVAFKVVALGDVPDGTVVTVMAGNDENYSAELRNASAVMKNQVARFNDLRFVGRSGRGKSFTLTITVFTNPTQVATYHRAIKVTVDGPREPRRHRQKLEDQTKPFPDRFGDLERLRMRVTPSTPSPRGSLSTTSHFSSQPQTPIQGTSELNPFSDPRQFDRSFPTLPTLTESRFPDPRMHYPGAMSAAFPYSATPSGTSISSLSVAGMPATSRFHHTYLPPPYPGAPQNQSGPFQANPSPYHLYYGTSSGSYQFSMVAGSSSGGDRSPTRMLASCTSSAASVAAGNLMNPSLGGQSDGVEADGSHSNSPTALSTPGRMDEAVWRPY

Target: T1, ETS1 (human (endogenous in OCI-Ly1)) (UniProt P14921)
T1 sequence: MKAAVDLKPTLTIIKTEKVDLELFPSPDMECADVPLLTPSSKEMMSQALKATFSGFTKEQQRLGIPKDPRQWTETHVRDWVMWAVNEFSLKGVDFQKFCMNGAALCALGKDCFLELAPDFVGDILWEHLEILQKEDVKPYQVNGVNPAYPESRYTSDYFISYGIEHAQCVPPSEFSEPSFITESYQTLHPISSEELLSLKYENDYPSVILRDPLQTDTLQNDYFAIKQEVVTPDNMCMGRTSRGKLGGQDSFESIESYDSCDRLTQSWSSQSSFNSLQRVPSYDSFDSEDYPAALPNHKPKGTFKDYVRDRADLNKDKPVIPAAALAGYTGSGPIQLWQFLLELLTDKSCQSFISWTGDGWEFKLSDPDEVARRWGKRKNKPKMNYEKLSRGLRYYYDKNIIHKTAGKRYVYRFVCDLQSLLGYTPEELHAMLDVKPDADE
Experiment: co-IP; endogenous ETS1 immunoprecipitated with anti-ETS1 antibody on Protein A magnetic beads from 3 mg OCI-Ly1 lysate (Pierce IP Lysis Buffer, overnight at 4 °C), immunoblot for RUNX3; ARID1A WT and KO clones

binding: binds
Substance: RUNX3 (from UniProt Q13761 1-415)
